Data reported in publication PMC6843027.
These are yes or no findings as the source states them, for the method shown. Binding seen in cells or lysates may run through a third protein. Some binding calls cover weakened binding; strength is not graded here. Where a sequence is shown, tags or fusion partners need not be part of it.

Sequences of proteins named here, by UniProt entry; tags and fusion partners are left off.
UniProt Q13526: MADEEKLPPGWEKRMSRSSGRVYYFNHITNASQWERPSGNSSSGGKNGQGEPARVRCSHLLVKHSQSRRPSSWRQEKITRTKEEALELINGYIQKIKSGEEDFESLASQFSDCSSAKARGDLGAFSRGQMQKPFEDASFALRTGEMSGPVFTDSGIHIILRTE

Molecular target: T1, full-length PARN (His-PARN) (UniProt O95453)
T1 sequence: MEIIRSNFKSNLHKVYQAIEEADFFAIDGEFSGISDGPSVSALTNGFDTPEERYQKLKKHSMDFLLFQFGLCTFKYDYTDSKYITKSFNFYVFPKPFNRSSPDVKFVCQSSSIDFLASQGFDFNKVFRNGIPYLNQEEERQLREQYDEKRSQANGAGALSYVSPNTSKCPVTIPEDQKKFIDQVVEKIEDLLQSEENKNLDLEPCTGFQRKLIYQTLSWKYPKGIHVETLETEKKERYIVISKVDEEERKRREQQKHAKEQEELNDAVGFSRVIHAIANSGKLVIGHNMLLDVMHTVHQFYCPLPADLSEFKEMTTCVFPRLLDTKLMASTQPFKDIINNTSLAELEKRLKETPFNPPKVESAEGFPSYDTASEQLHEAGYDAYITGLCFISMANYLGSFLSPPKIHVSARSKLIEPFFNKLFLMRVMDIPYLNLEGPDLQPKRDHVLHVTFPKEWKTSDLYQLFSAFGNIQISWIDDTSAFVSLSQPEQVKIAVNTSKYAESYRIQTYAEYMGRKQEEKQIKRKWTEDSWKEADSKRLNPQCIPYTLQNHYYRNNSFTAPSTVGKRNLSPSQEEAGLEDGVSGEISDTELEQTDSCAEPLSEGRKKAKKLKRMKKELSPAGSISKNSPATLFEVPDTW
Test: pull-down; 2 ug of His- or GST-fusion protein bound to beads incubated with 200 ug nuclear extract of HCT116 cells, untreated or UV-treated; NEs treated with RNase A; immunoblot; only the target purified

| Substance | binding |
| --- | --- |
| peptidyl-prolyl isomerase Pin1, endogenous nuclear (from UniProt Q13526 1-163) (enzyme) | binds |
| tumor suppressor p53, endogenous nuclear (from UniProt P04637 1-393) | binds |
